Drawing on PubChem BioAssay AID190 (DTP/NCI, 2004), this text covers T/C and survivor count for three compounds.

For this assay, the system named is AKR/Lw mice, AKR lymphoma ip, median survival T/C. Description: NCI In Vivo Anticancer Drug Screen. Data for tumor model Lymphoma AKR (Transplanted) (intraperitoneal) in AKR/Lw mice. The conditions noted are these: T/C endpoint: median survival time, higher T/C = longer survival. The method, then: The antitumor activity of compounds was measured in mice bearing transplantable tumors. Survival or tumor size were measured and the results are expressed as the measurement made in the treated group (T) divided by the measurement made in the vehicle treated control group (C). The tumor model used in this assay is Lymphoma AKR (Transplanted) (intraperitoneal) in AKR/Lw mice

Where [1] appears, read: dose: 2.0 mg/kg/injection, schedule: Q01DX009 (ip), vehicle: saline.
The mark [2] stands for this setting: dose: 3.0 mg/kg/injection, schedule: Q04DX003 (ip), vehicle: saline.
[3] abbreviates: dose: 4.0 mg/kg/injection, schedule: Q01DX009 (ip), vehicle: saline.
Setting [4] is: dose: 7.5 mg/kg/injection, schedule: Q04DX003 (ip), vehicle: saline.
Where [5] appears, read: dose: 8.0 mg/kg/injection, schedule: Q04DX003 (ip), vehicle: saline.
The mark [6] stands for this setting: dose: 12.5 mg/kg/injection, schedule: Q01DX001 (ip), vehicle: saline.
Setting [7] is: dose: 20.0 mg/kg/injection, schedule: Q01DX001 (ip), vehicle: saline.
Setting [8] is: dose: 25.0 mg/kg/injection, schedule: Q01DX001 (ip), vehicle: saline.

The list does not hold the whole screen: it is rich in T/C values a quarter to a half above the control, in often repeated tests (any T/C) and in doses without a T/C. Further doses and runs are listed elsewhere. T/C is the treated group as % of the vehicle group. Some entries give survivors of the animals treated and no T/C: the source files T/C as zero there, which appears to mark a toxic dose or a test without result, not a measured value. Some doses without a T/C left all or most animals alive at the check, yet need not have been tolerated: the source hardly ever lists a survival T/C far under the control, and the zero likely stands for such cases as well. Survivors were counted at the toxicity check, usually on the fifth day, unless a day is given; later deaths do not show. Schedules are NCI's codes, taken here to give the interval after Q, in days (D) or hours (H), and the number of doses after X. Some entries hold several experiments; their values stand side by side, smallest first. For survival time, the PubChem record calls one and a half times the control and up active, and a quarter to a half above the control has no call in these data; cut-offs in other NCI protocols can differ. Some T/C values carry the count of animals alive at the toxicity check (mostly the fifth day); without a count, all were alive then.

As for `S=P(N1CC1)(N1CC1)N1CC1`, the T/C is 133 % of control (dose: 0.02 mg/kg/injection, schedule: Q01DX009 (ip), vehicle: saline); 125 % of control [7 of 10 alive] (dose: 0.05 mg/kg/injection, schedule: Q01DX009 (ip), vehicle: saline); 126 % of control under setting [1]; 94 [7 of 10 alive], 100, 107, 116, 117 % of control (dose: 2.0 mg/kg/injection, schedule: Q04DX003 (ip), vehicle: saline); 129 % of control under setting [2]; 132 % of control under setting [3]. Further, the T/C reads like this: (dose: 4.0 mg/kg/injection, schedule: Q04DX003 (ip), vehicle: saline) 95, 116, 126, 146, 147 % of control [9 of 10 alive]; (dose: 5.0 mg/kg/injection, schedule: Q04DX003 (ip), vehicle: saline) 106, 118, 136, 140, 144, 155 % of control; (dose: 6.2 mg/kg/injection, schedule: Q01DX001 (ip), vehicle: saline) 139 % of control [9 of 10 alive]; (dose: 6.25 mg/kg/injection, schedule: Q01DX001 (ip), vehicle: saline) 126 % of control; under setting [4], 129 % of control; under setting [5], 88, 100 [9 of 10 alive], 188 % of control. Also, the T/C reads like this: (dose: 10.0 mg/kg/injection, schedule: Q01DX001 (ip), vehicle: saline) 127 and 135 % of control; under setting [6], 121, 122, 133, 133 [9 of 10 alive], 142 % of control [9 of 10 alive]; under setting [7], 102 [9 of 10 alive] and 125 % of control [9 of 10 alive]; under setting [8], 111 [8 of 10 alive], 131, 139 % of control [9 of 10 alive]. In addition, the survivor count is, setting by setting: (dose: 0.12 mg/kg/injection, schedule: Q01DX009 (ip), vehicle: saline) 10 of 10; (dose: 0.25 mg/kg/injection, schedule: Q01DX009 (ip), vehicle: saline) 10 of 10; (dose: 0.5 mg/kg/injection, schedule: Q01DX009 (ip), vehicle: saline) 10 of 10; (dose: 0.75 mg/kg/injection, schedule: Q01DX009 (ip), vehicle: saline) 10 of 10; (dose: 1.5 mg/kg/injection, schedule: Q01DX009 (ip), vehicle: saline) 9 of 10; under setting [1], 9 of 10. Further, the survivor count is listed as 10 of 10 (dose: 3.0 mg/kg/injection, schedule: Q01DX009 (ip), vehicle: saline); 10 of 10 under setting [2]; 7 of 10 under setting [3]; 10 of 10 (dose: 5.0 mg/kg/injection, schedule: Q01DX009 (ip), vehicle: saline); 10 of 10 under setting [4]; 10 of 10 under setting [5]. Further, the survivor count is, setting by setting: (dose: 10.0 mg/kg/injection, schedule: Q01DX009 (ip), vehicle: saline) 8 of 10; (dose: 10.0 mg/kg/injection, schedule: Q04DX003 (ip), vehicle: saline) 9 of 10 and 10 of 10; under setting [6], 9 of 10; (dose: 15.0 mg/kg/injection, schedule: Q01DX001 (ip), vehicle: saline) 7 of 10; (dose: 16.0 mg/kg/injection, schedule: Q04DX003 (ip), vehicle: saline) 10 of 10; under setting [7], 4 of 10 and 5 of 10. Besides, the survivor count is, setting by setting: (dose: 20.0 mg/kg/injection, schedule: Q01DX009 (ip), vehicle: saline) 4 of 10; (dose: 20.0 mg/kg/injection, schedule: Q04DX003 (ip), vehicle: saline) 8 of 10; (dose: 25.0 mg/kg/injection, schedule: Q01DX001 (ip), vehicle: saline with Tween-80) 10 of 10; under setting [8], 1 of 10, 2 of 10, 3 of 10, 4 of 10, 6 of 10; (dose: 30.0 mg/kg/injection, schedule: Q01DX009 (ip), vehicle: saline) 0 of 10; (dose: 32.0 mg/kg/injection, schedule: Q04DX003 (ip), vehicle: saline) 10 of 10. For the same compound, the survivor count (dose: 50.0 mg/kg/injection, schedule: Q01DX001 (ip), vehicle: saline with Tween-80) is 10 of 10; the survivor count (dose: 50.0 mg/kg/injection, schedule: Q01DX001 (ip), vehicle: saline) was 0 of 10, 1 of 10, 2 of 10, 6 of 10; the survivor count (dose: 60.0 mg/kg/injection, schedule: Q01DX009 (ip), vehicle: saline) is listed as 0 of 10; the survivor count (dose: 100.0 mg/kg/injection, schedule: Q01DX001 (ip), vehicle: saline with Tween-80) is listed as 10 of 10; the survivor count (dose: 100.0 mg/kg/injection, schedule: Q01DX001 (ip), vehicle: saline) is given as 0 of 10; the survivor count (dose: 50.0 micrograms/kg/injection, schedule: Q01DX009 (ip), vehicle: saline) was 10 of 10.

For the compound `COc1cc([C@@H]2c3cc4c(cc3[C@@H](OC3OC5COC(C)OC5C(O)C3O)[C@H]3COC(=O)[C@H]23)OCO4)cc(OC)c1O` (stereo not given in full), the survivor count by setting is: (dose: 10.0 mg/kg/injection, schedule: Q01DX009 (ip), vehicle: Klucel (hydroxypropylcellulose) (HPC)) 9 of 10; (dose: 20.0 mg/kg/injection, schedule: Q01DX009 (ip), vehicle: Klucel (hydroxypropylcellulose) (HPC)) 10 of 10; (dose: 40.0 mg/kg/injection, schedule: Q01DX009 (ip), vehicle: Klucel (hydroxypropylcellulose) (HPC)) 2 of 10.

Turning to `Cc1c(N)nc([C@H](CC(N)=O)NC[C@H](N)C(N)=O)nc1C(=O)N[C@H](C(=O)N[C@H](C)[C@@H](O)[C@H](C)C(=O)N[C@H](C(=O)NCCc1nc(-c2nc(C(=O)NCCC[S+](C)C)cs2)cs1)[C@@H](C)O)C(OC1OC(CO)C(O)C(O)C1OC1OC(CO)C(O)C(OC(N)=O)C1O)c1cnc[nH]1` (stereo not given in full), the T/C is 126 % of control (dose: 0.15 mg/kg/injection, schedule: Q01DX010 (ip), vehicle: saline) and 146 % of control (dose: 0.25 mg/kg/injection, schedule: Q01DX010 (ip), vehicle: saline). For the same compound, the survivor count (dose: 2.9 mg/kg/injection, schedule: Q01DX010 (ip), vehicle: saline) is listed as 10 of 10; the survivor count (dose: 4.4 mg/kg/injection, schedule: Q01DX010 (ip), vehicle: saline) is reported as 10 of 10; the survivor count (dose: 6.7 mg/kg/injection, schedule: Q01DX010 (ip), vehicle: saline) was 10 of 10; the survivor count (dose: 10.0 mg/kg/injection, schedule: Q01DX010 (ip), vehicle: saline) was 10 of 10.
